Source: the supplement of paper PMC10849652
This is one part of the list.

Protein sequences, listed by entry. Tags and fused reporters are not part of them. Lines headed by an entry give the natural chain unless they say otherwise; changes in a name come on top.
UniProt P78345: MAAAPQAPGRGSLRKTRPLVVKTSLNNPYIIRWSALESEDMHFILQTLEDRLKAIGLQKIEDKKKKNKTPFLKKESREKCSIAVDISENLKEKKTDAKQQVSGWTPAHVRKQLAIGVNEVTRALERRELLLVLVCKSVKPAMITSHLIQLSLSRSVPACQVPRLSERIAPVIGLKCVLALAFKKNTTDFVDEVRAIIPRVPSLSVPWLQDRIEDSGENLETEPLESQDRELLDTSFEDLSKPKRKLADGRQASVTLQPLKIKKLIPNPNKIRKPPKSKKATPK
UniProt Q92901: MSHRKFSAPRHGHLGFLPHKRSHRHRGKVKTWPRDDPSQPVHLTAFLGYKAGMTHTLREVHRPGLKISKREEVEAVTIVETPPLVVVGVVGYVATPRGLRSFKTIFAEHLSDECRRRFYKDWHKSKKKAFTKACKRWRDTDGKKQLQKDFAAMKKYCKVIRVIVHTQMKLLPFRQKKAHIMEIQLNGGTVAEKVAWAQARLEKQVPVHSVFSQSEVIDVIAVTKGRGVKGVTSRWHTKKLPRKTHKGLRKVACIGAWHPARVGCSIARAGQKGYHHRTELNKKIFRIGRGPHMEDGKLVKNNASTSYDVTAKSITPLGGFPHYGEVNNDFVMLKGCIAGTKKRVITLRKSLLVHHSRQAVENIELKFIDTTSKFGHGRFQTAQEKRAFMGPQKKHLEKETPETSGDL
UniProt P13489: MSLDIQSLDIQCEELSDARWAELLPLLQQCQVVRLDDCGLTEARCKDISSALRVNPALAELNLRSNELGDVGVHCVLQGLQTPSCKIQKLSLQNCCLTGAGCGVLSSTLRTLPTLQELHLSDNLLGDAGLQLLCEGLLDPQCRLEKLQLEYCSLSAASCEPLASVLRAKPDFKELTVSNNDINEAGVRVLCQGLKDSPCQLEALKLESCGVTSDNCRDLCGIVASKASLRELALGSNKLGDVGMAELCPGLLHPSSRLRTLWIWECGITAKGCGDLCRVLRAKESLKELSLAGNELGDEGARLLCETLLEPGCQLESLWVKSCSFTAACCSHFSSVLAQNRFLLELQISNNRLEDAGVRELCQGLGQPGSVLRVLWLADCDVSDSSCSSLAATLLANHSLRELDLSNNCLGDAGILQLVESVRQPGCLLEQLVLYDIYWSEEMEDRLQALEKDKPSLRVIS
UniProt P27694, whole entry, looked up: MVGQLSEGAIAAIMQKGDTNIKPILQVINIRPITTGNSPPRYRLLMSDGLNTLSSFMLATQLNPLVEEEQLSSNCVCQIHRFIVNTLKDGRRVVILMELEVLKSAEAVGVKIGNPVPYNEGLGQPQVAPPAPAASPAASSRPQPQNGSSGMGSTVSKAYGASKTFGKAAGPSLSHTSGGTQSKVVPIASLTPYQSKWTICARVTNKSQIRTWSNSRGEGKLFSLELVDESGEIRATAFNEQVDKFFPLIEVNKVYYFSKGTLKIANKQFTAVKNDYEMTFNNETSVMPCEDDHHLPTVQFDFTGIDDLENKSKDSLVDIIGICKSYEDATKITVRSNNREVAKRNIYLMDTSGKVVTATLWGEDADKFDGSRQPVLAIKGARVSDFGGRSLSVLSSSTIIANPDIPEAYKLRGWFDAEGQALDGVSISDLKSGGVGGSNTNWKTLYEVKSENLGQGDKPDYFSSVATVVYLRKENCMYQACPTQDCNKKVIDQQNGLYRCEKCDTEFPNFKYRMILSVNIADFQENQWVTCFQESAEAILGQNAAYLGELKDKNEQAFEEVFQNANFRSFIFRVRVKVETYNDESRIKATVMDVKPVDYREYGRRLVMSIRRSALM
UniProt Q9H4A4: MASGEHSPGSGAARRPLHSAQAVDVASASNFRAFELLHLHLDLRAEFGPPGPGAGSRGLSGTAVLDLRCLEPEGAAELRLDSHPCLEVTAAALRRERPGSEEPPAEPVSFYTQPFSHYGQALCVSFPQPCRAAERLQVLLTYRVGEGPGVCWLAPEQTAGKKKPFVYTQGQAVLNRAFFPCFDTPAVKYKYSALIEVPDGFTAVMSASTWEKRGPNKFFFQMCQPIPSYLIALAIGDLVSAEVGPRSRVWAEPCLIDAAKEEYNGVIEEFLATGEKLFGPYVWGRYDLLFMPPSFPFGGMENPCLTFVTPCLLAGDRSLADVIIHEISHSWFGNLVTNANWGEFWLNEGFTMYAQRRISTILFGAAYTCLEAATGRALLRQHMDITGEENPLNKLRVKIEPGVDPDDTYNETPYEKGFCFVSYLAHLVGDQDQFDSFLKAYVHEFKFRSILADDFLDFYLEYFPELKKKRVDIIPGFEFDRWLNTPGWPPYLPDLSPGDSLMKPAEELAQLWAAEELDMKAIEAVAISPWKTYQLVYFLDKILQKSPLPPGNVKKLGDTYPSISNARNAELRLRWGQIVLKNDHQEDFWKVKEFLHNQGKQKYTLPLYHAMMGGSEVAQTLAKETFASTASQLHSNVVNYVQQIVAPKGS
UniProt P10155: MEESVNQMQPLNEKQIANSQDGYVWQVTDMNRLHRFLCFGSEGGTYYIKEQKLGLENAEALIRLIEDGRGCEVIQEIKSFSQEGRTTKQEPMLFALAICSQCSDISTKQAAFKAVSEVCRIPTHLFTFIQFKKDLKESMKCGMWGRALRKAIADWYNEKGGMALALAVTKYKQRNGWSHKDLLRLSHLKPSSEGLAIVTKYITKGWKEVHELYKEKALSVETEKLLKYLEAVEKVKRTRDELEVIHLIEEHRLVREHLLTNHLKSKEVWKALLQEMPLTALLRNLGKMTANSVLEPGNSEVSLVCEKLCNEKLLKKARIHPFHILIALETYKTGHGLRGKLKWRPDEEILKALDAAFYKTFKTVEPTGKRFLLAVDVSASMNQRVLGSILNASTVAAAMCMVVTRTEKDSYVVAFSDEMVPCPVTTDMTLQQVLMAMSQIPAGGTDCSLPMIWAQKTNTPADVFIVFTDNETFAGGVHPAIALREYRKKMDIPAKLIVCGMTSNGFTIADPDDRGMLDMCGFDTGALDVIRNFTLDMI
UniProt Q15349, whole entry, looked up: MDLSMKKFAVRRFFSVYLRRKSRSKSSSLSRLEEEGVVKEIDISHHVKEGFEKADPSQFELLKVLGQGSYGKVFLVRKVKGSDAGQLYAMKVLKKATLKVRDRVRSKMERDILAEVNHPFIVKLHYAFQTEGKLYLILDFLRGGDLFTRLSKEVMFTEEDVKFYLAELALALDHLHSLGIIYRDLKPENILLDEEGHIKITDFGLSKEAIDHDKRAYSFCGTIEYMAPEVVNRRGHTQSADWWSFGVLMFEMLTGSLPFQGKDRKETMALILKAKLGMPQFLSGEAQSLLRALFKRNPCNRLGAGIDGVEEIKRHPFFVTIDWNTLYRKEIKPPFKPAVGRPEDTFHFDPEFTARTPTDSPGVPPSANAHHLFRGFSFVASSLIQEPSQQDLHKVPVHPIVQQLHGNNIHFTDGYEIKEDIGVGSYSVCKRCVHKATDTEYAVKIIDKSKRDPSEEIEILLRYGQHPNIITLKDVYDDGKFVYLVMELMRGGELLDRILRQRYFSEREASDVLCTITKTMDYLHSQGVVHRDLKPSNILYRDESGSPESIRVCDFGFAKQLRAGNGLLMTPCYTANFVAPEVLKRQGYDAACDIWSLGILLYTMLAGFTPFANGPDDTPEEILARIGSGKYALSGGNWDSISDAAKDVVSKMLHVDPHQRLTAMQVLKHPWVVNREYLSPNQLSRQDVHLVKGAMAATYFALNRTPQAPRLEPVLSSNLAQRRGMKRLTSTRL
UniProt Q96S38: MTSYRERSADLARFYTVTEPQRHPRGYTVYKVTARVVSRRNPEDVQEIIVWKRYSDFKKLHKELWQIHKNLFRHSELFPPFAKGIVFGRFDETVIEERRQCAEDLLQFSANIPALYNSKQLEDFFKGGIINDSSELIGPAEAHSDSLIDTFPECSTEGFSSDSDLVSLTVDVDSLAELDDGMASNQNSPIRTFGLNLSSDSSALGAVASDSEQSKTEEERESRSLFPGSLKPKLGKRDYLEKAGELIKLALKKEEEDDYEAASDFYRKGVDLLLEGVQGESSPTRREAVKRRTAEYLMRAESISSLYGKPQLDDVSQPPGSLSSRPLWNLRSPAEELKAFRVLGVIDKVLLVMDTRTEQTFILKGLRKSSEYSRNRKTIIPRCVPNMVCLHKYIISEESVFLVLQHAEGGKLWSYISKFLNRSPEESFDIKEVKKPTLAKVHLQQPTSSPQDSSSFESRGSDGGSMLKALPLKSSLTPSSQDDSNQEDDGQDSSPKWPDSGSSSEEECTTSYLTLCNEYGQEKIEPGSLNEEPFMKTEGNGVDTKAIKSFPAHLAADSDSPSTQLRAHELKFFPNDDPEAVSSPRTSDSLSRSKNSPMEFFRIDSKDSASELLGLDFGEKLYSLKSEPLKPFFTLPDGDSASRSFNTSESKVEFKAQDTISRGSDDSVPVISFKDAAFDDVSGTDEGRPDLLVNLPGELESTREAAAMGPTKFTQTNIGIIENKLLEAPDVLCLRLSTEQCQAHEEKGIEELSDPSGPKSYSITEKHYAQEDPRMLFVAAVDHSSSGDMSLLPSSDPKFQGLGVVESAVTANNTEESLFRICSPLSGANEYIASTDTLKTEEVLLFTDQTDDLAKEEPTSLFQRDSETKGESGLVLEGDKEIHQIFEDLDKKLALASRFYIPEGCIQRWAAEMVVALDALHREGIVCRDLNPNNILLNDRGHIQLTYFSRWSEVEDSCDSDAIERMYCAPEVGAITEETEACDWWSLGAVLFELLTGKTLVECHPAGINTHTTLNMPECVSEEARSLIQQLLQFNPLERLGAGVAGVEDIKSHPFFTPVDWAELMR
UniProt Q9H633: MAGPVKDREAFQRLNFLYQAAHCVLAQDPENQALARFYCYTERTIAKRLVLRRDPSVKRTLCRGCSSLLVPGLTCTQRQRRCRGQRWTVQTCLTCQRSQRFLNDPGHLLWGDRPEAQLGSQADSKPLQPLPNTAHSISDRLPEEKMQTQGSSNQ
UniProt P15927: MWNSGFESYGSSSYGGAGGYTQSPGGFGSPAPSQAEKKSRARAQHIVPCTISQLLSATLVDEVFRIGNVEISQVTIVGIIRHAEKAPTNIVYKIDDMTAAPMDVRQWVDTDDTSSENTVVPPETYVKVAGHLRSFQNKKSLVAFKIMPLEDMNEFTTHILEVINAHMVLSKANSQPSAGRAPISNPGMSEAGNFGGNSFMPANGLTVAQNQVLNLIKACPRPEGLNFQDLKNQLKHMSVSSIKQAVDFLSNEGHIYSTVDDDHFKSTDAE
UniProt Q969K3: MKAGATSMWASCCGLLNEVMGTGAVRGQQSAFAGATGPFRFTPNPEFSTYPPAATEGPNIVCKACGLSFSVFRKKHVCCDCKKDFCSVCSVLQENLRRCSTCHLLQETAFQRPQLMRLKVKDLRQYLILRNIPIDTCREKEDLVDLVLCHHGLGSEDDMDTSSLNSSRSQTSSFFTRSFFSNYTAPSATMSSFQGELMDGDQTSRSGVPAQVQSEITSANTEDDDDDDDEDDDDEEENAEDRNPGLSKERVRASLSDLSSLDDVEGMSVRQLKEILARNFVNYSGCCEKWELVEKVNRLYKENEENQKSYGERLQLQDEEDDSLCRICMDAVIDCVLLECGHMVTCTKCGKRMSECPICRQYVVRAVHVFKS
UniProt Q15287: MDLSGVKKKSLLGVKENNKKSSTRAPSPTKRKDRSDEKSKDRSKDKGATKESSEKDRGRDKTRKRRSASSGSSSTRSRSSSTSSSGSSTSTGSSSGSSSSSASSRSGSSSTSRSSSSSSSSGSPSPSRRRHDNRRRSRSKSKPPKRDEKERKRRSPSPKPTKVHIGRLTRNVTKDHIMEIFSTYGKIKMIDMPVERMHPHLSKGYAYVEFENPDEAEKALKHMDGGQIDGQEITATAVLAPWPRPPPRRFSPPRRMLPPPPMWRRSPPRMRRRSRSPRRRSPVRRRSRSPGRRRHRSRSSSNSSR
UniProt Q9UBF6, whole entry, looked up: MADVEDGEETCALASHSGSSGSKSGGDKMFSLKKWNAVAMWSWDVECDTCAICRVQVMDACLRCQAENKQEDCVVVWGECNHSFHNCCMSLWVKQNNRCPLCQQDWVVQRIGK
UniProt P04843: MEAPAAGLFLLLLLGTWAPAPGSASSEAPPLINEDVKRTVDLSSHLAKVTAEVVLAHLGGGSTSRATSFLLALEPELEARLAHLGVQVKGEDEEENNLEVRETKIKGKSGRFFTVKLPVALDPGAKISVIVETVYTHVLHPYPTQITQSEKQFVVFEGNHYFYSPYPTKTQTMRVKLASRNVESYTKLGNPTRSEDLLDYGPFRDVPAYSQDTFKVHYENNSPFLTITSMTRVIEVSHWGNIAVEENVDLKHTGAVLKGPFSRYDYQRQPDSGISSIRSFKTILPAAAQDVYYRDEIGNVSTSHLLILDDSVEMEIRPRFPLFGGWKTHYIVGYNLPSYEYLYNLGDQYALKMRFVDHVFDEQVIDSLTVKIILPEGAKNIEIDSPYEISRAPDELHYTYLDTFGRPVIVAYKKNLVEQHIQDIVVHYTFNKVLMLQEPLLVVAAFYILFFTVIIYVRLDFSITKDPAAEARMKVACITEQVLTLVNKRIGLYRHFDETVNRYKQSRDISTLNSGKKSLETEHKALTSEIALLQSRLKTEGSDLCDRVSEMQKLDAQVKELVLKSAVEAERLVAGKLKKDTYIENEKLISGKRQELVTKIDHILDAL

The targets below were run with C1=CC(=C(C=C1Cl)C2=NC3=NC=CN=C3C(=N2)NC4=CC=NC=C4)F (assay: log2 fold change, soluble protein after heating vs DMSO (PISA); higher = thermal stabilisation; K562 cells, 10 uM, 30 min; active = over 0.2 and 3.5 SD of the protein, either way, in both replicates (recomputed)).
In short: (§1)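 Values are thermal stability changes relative to control samples and are taken from duplicates. They are stated as log2 fold changes. Before quantification by TMTpro 16plex LC-MS/MS with equalised channel sums, K562 cells at 2×10^6 cells/mL were treated with 10 μM compound for 30 min, heated in aliquots for 3 min across 48°C-58°C, pooled, extracted in PBS with 0.5% NP-40 at 4°C, and centrifuged at 21,000xg for 90 min to give the soluble supernatant.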

log2 fold change, inactive:
RPLP2 (UniProt P05387) -0.841, RPP38 (UniProt P78345) -0.053, RPL29 (UniProt P47914) -1.25, RPL36 (UniProt Q9Y3U8) -1.03, RPS18 (UniProt P62269) -0.211, RPS3 (UniProt P23396) -0.224, RPL3L (UniProt Q92901) -1.34, RPTOR (UniProt Q8N122) 0.036, RPL10 (UniProt P27635) -0.674, RNH1 (UniProt P13489) 0.089, RPA1 (UniProt P27694) 0.147, RPP30 isoform 2 (UniProt P78346) -0.019, RPS6KA1 isoform 2 (UniProt Q15418) -0.082, RNPEP (UniProt Q9H4A4) 0.053, RPS6KB1 (UniProt P23443) 0.037, RPL18A (UniProt Q02543) -1.05, RO60 (UniProt P10155) 0.027, RPS3A (UniProt P61247) -0.232, RPS6KA2 isoform 2 (UniProt Q15349) -0.068, RPL28 (UniProt P46779) -1.14, RPS12 (UniProt P25398) -0.072, RPS6KC1 (UniProt Q96S38) 0.025, RNMT isoform 2 (UniProt O43148) -0.024, RPP21 isoform 4 (UniProt Q9H633) 0.035, RPS4X (UniProt P62701) -0.37, RPS24 isoform 4 (UniProt P62847) -0.33, RPL23A (UniProt P62750) -0.474, RPS19 (UniProt P39019) -0.274, RPA2 isoform 3 (UniProt P15927) 0.061, RNF34 isoform 2 (UniProt Q969K3) -0.033, RPL3 (UniProt P39023) -1.15, RPL35 (UniProt P42766) -0.703, RNPS1 (UniProt Q15287) 0.06, RRAGB (UniProt Q5VZM2) 0.004, RNF7 (UniProt Q9UBF6) -0.046, RPN1 (UniProt P04843) 0.049, RPL8 (UniProt P62917) -1.06, RPL19 (UniProt P84098) -0.792, RPS17 (UniProt P08708) -0.285, RPS27A (UniProt P62979) -0.207

Each target was assayed with C1=CC(=CC=C1C2=NC3=C(N2)C=C(C=C3)C(=O)N)OC4=CC=C(C=C4)Cl in the same assay as above.
In short: as §1

log2 fold change, inactive:
RPLP2 (UniProt P05387) 0.04, RPP38 (UniProt P78345) 0.078, RPL29 (UniProt P47914) 0.08, RPL36 (UniProt Q9Y3U8) 0.092, RPS18 (UniProt P62269) 0.039, RPS3 (UniProt P23396) 0.061, RPL3L (UniProt Q92901) 0.118, RPTOR (UniProt Q8N122) -0.037, RPL10 (UniProt P27635) 0.082, RNH1 (UniProt P13489) 0.002, RPA1 (UniProt P27694) 0.008, RPP30 isoform 2 (UniProt P78346) 0.044, RPS6KA1 isoform 2 (UniProt Q15418) 0.107, RNPEP (UniProt Q9H4A4) 0.007, RPS6KB1 (UniProt P23443) 0.009, RPL18A (UniProt Q02543) 0.111, RO60 (UniProt P10155) 0.031, RPS3A (UniProt P61247) 0.062, RPS6KA2 isoform 2 (UniProt Q15349) 0.075, RPL28 (UniProt P46779) 0.054, RPS12 (UniProt P25398) -0.001, RPS6KC1 (UniProt Q96S38) -0.017, RNMT isoform 2 (UniProt O43148) -0.007, RPP21 isoform 4 (UniProt Q9H633) -0.078, RPS4X (UniProt P62701) 0.054, RPS24 isoform 4 (UniProt P62847) 0.043, RPL23A (UniProt P62750) 0.005, RPS19 (UniProt P39019) 0.057, RPA2 isoform 3 (UniProt P15927) -0.019, RNF34 isoform 2 (UniProt Q969K3) -0.012, RPL3 (UniProt P39023) 0.063, RPL35 (UniProt P42766) 0.048, RNPS1 (UniProt Q15287) 0.053, RRAGB (UniProt Q5VZM2) 0.023, RNF7 (UniProt Q9UBF6) -0.031, RPN1 (UniProt P04843) -0.033, RPL8 (UniProt P62917) 0.051, RPL19 (UniProt P84098) 0, RPS17 (UniProt P08708) 0.06, RPS27A (UniProt P62979) 0.016
